Measurements: paper PMC4823074
Results are given in words; binding and its absence hold for the method and conditions named. In cells and extracts the contact can be indirect. Some results given as binding are weak or reduced against the parent protein; the word gives no strength.

Protein sequences, listed by entry. Tags and fused reporters are not part of them.
UniProt Q00987: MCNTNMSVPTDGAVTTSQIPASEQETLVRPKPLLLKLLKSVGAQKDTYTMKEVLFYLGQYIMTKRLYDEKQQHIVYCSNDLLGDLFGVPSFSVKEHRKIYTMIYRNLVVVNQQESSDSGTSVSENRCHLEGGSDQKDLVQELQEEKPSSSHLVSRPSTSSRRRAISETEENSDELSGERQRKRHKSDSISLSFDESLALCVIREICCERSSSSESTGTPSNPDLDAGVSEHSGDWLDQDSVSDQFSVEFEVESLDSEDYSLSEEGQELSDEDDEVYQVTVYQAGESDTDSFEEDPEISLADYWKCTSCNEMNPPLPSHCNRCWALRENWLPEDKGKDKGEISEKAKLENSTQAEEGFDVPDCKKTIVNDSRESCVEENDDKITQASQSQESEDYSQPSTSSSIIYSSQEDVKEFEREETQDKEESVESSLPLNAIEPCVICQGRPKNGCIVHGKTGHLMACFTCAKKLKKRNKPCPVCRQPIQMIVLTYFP
UniProt O95155: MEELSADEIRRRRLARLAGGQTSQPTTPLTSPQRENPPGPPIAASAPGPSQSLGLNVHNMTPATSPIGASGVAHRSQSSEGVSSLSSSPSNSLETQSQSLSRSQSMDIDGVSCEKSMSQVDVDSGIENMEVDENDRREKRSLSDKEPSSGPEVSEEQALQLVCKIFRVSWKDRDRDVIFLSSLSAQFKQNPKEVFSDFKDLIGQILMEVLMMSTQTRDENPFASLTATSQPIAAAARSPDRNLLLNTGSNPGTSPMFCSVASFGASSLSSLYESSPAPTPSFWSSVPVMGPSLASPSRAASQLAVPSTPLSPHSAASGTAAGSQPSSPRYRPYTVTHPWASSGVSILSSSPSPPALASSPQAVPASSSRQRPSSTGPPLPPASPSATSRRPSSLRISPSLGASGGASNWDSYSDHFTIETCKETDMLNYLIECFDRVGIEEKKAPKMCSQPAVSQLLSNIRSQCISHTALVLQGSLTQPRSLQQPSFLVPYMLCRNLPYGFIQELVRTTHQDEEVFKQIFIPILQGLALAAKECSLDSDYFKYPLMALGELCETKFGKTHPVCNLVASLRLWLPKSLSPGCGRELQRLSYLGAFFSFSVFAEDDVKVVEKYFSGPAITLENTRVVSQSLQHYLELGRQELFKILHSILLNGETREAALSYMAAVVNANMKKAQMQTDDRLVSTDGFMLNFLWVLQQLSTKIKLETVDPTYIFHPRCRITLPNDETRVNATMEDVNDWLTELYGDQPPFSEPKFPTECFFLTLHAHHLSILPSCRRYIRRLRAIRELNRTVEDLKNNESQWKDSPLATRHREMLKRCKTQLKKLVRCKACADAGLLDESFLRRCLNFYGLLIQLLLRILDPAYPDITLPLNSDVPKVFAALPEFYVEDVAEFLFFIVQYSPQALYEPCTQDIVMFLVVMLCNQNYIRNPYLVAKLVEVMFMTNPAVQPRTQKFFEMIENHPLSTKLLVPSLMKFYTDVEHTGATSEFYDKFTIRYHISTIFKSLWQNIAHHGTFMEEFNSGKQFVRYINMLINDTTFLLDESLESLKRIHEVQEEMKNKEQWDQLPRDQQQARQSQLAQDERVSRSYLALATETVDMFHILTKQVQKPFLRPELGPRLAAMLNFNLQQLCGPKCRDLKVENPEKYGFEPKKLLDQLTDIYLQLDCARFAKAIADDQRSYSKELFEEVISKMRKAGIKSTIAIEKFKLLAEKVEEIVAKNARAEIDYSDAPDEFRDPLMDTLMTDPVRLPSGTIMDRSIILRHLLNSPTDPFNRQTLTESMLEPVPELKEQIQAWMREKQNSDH

Biological target: Hdm2 (human (endogenous in MCF7)) (UniProt Q00987)
Assay: co-IP; endogenous proteins of MCF7 cell extracts; cells with or without 6 Gy IR (harvested 3 h after IR), MG132 in the reciprocal IP; lysis buffer 50 mM Tris-HCl pH 7.4, 1 mM EDTA, 150 mM NaCl, 0.5% NP40; protein A/G Plus-agarose, 4°C; western blot

binding: binds
Substance: UBE4B (from UniProt O95155 1-1302) (enzyme)
